Laboratory results as given in PMC3219591.
Results are given in words; binding and its absence hold for the method and conditions named. A result given as binding can be weak or reduced; the word gives no strength. For some assays here: Sequences can lack the tags named with a protein. For some assays here: In cells and extracts the contact can be indirect. Each block holds one molecule with its values, some of them ahead of it.

The chains behind the UniProt entries cited, without tags or fusion partners. Where a name states a change or a piece, a line headed by the entry shows the natural chain unless it says otherwise.
UniProt P01106: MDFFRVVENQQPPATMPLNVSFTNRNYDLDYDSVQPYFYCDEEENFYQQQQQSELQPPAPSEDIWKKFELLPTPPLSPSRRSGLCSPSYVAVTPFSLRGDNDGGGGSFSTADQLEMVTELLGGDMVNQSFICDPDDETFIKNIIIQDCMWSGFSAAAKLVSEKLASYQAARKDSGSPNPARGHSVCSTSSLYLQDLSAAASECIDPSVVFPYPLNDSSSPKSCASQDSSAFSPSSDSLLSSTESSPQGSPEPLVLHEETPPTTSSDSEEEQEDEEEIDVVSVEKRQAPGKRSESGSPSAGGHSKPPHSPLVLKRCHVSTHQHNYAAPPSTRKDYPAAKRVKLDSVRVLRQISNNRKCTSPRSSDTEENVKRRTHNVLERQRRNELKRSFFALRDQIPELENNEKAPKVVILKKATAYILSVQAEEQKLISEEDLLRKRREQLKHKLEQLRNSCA

What was measured:
[1] = molecular target: T1, human PIRH2 (pcDNA3-hPIRH2) (human) (UniProt Q96PM5); assay: co-IP; HEK293T cells transfected with PIRH2 and c-MYC plasmids, lysed after 48 h (50 mM Tris-HCl pH 7.4, 150 mM NaCl, 1% Triton-X); IP with anti-PIRH2 or anti-c-MYC antibody, immunoblot
T1 sequence: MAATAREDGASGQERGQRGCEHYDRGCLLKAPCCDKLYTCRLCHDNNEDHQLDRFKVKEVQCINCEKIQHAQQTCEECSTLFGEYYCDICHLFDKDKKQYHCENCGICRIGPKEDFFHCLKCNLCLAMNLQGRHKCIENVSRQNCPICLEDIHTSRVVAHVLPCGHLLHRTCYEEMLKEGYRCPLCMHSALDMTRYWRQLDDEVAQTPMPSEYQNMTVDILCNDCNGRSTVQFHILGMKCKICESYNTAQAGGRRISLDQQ

[2] = molecular target: T2, GST-PIRH2 (aa 138–261) (human) (UniProt Q96PM5); assay: pull-down; GST pull-down: purified GST-PIRH2 (full length or fragments) incubated with His-c-MYC fusion proteins, 1:2 molar ratio, 4°C overnight, PBS pH 7.4, 100 mM NaCl, 5 mM βME; glutathione-Sepharose, eluted with 30 mM reduced glutathione; SDS-PAGE and Coomassie staining; both purified
T2 sequence: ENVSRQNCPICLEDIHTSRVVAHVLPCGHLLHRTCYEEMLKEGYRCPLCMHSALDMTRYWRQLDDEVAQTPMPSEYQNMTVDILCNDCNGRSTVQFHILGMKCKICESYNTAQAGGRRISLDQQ

[3] = molecular target: T3, GST-PIRH2 N-terminus (aa 1–137) (human) (UniProt Q96PM5); assay: as above
T3 sequence: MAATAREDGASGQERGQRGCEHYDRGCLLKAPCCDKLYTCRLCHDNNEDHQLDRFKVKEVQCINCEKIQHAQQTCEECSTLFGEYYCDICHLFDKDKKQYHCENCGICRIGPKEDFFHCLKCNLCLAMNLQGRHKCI

[4] = molecular target: human c-MYC (pcDNA3-c-MYC) (human) (UniProt P01106); assay: co-IP; HEK293T cells transfected with PIRH2 and c-MYC plasmids, lysed after 48 h (50 mM Tris-HCl pH 7.4, 150 mM NaCl, 1% Triton-X); IP with anti-PIRH2 or anti-c-MYC antibody, immunoblot

Molecule: c-MYCboxII (120–160 aa) (human) (domain or fragment)
- binding [2]: binds

Molecule: His-c-MYC (353–434 aa) (human) (domain or fragment)
- binding [3]: binds

B1: human PIRH2 (pcDNA3-hPIRH2) (protein, UniProt Q96PM5 1-261)
chain: MAATAREDGASGQERGQRGCEHYDRGCLLKAPCCDKLYTCRLCHDNNEDHQLDRFKVKEVQCINCEKIQHAQQTCEECSTLFGEYYCDICHLFDKDKKQYHCENCGICRIGPKEDFFHCLKCNLCLAMNLQGRHKCIENVSRQNCPICLEDIHTSRVVAHVLPCGHLLHRTCYEEMLKEGYRCPLCMHSALDMTRYWRQLDDEVAQTPMPSEYQNMTVDILCNDCNGRSTVQFHILGMKCKICESYNTAQAGGRRISLDQQ
- binding [4]: binds

Continued, values first:

- binding [1]: binds
Molecule: human c-MYC (pcDNA3-c-MYC) (from UniProt P01106)

- binding [2]: no binding
Molecule: His-c-MYC boxI (1–69 aa) (human) (domain or fragment)
